Results reported in publication PMC12408367 (2025).

Target: T1, ACO1 (aconitase 1, IRP1) (Homo sapiens (MDA-MB-231 exosome lysate)) (UniProt P21399)
T1 sequence (looked up, limits assumed): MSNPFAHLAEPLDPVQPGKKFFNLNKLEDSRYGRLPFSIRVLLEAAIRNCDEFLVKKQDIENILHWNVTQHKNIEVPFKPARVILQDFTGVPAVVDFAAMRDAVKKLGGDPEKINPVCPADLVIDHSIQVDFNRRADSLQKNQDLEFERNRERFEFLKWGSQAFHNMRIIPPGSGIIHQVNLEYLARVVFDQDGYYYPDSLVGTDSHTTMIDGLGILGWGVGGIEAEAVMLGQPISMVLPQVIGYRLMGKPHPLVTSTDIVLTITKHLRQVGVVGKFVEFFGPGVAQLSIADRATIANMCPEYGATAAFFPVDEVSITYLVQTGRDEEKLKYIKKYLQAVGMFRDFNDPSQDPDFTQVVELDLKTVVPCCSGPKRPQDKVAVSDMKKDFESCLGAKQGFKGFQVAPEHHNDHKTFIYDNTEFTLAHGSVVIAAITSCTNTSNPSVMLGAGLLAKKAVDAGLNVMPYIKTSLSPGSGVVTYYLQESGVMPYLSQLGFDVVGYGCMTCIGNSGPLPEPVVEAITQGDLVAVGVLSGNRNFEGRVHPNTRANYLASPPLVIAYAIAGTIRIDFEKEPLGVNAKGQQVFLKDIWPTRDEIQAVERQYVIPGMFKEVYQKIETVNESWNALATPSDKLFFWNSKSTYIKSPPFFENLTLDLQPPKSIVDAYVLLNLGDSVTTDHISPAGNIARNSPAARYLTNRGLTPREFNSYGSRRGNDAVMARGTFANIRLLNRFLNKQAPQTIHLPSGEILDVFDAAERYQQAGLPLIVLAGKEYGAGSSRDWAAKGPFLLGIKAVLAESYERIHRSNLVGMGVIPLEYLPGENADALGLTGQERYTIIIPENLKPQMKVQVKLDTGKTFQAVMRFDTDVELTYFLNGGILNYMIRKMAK
Assay: pull-down
Settings: Pulldown: 3 ug biotinylated miRNA, 1 mg lysate in RIPA buffer with RNase and protease inhibitors, 4 C 1 h, then streptavidin beads overnight at 4 C, protein in an extract

Sequence: GUGCAUUGUAGUUGCAUUGCA [Biotin-hsa-miR-33a-5p]
- binding result (ferric carboxymaltose (FeCM), label: 5' biotin): binds more weakly
- binding result (no FeCM, label: 5' biotin): binds

Sequence: GUCGUAACUAGUUGCAUUGCA [Biotin-miR-33a-5p mut1 (outside CAUUGC)]
- binding result (ferric carboxymaltose (FeCM), label: biotin): binds more weakly
- binding result (no FeCM, label: biotin): binds

Sequence: GUGCAUUGUAGUUGGUAACGA [Biotin-miR-33a-5p mut2 (CAUUGC mutated)]
- binding result (label: 5' biotin): no binding

The exact form of at least one protein or probe is not confirmed. Results from cells or extracts need not show a direct contact. No signal at the amounts used counts as a negative. Tags and fusion partners may be left off the protein sequences shown. Weaker means in comparison with the reference protein, sequence or condition of that experiment. At least one verdict was read from the data and is not stated in words by the source.
